# Test results published in publication PMC5996148.
# Several values for one entry are separate records, joined by “and”; a condition that tells them apart may be missing. Identical values can stand only once. The list shows a part of the results. For some assays here: Construct or isoform of the protein are uncertain.
# Assays:
# Experiment in all cases: protein microarray (ProtoArray v5.0), streptavidin-Alexa Fluor 647
# Conditions in all cases: 3'-biotin; 20 mM Tris (pH 7.5), 5 mM MgCl2, 100 mM KCl, 0.1% Tween-20, A/T-rich and random oligonucleotide blockers; temperature not stated; high values mean tight binding
# [1] = system: GRIP and coiled-coil domain-containing protein 1 (human)
# GSDMDC1 (human) = system: GSDMDC1 (human)
# GSTA1 (human) = system: GSTA1 (human)
# GSTA3 (human) = system: GSTA3 (human)
# GSTM3 (human) = system: GSTM3 (human)
# GSTO1 (human) = system: GSTO1 (human)
# GSTO2 (human) = system: GSTO2 (human)
# GSTP1 (human) = system: GSTP1 (human)
# GSTZ1 (human) = system: GSTZ1 (human)
# GTF2E1 (human) = system: GTF2E1 (human)
# GTF2H2 (human) = system: GTF2H2 (human)
# GTF2H5 (human) = system: GTF2H5 (human)
# GTF2I (human) = system: GTF2I (human)
# GTF2IRD2 (human) = system: GTF2IRD2 (human)
# [2] = system: GTP-binding nuclear protein Ran (human)
# GTPBP8 (human) = system: GTPBP8 (human)
# GUCA1A (human) = system: GUCA1A (human)
# GUCY1B3 (human) = system: GUCY1B3 (human)
# GYG2 = biological target: T1, GYG2 (UniProt O15488)
# T1 sequence: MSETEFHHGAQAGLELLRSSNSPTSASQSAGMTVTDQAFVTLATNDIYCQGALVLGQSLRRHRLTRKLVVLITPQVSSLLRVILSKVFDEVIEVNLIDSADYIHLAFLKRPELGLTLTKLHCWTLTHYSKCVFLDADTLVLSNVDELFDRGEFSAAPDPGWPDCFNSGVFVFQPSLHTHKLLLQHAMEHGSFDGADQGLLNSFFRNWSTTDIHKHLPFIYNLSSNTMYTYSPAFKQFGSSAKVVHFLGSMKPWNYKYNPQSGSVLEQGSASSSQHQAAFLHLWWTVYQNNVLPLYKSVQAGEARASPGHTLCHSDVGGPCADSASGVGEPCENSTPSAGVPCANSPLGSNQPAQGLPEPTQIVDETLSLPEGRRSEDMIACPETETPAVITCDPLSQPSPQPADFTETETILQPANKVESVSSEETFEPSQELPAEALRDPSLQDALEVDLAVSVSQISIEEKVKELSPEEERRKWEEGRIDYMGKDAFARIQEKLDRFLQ
# GYPC = biological target: T2, GYPC (UniProt P04921)
# T2 sequence: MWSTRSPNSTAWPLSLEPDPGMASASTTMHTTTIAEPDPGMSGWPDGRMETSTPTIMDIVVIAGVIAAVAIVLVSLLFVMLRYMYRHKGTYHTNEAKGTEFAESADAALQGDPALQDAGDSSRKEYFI
sequence,measurement,setting,value
GGGAGGCTGAGGCAGG [G4-1 biotinylated (PQS2)],binding signal,[1],-0.236 z-score
same,binding signal,GSDMDC1 (human),-0.327 z-score
same,binding signal,GSTA1 (human),-0.341 z-score
same,binding signal,GSTA3 (human),-0.332 z-score
same,binding signal,GSTM3 (human),-0.353 z-score and -0.276 z-score
same,binding signal,GSTO1 (human),-0.275 z-score
same,binding signal,GSTO2 (human),-0.282 z-score
same,binding signal,GSTP1 (human),-0.32 z-score
same,binding signal,GSTZ1 (human),-0.325 z-score
same,binding signal,GTF2E1 (human),-0.287 z-score
same,binding signal,GTF2H2 (human),-0.305 z-score
same,binding signal,GTF2H5 (human),-0.346 z-score
same,binding signal,GTF2I (human),-0.358 z-score
same,binding signal,GTF2IRD2 (human),-0.286 z-score
same,binding signal,[2],-0.304 z-score and -0.344 z-score
same,binding signal,GTPBP8 (human),-0.321 z-score
same,binding signal,GUCA1A (human),-0.349 z-score
same,binding signal,GUCY1B3 (human),-0.299 z-score
same,binding signal,GYG2,-0.341 z-score
same,binding signal,GYPC,-0.348 z-score
